Reference: paper PMC6523986
No constants are given. Whether binding was seen depends on the method and setting. Binding seen in cells or lysates may run through a third protein. Some results given as binding are weak or reduced against the parent protein; the word gives no strength. One block for each substance: values may come before it.

Protein sequences, listed by entry. Tags and fused reporters are not part of them.
UniProt P29350: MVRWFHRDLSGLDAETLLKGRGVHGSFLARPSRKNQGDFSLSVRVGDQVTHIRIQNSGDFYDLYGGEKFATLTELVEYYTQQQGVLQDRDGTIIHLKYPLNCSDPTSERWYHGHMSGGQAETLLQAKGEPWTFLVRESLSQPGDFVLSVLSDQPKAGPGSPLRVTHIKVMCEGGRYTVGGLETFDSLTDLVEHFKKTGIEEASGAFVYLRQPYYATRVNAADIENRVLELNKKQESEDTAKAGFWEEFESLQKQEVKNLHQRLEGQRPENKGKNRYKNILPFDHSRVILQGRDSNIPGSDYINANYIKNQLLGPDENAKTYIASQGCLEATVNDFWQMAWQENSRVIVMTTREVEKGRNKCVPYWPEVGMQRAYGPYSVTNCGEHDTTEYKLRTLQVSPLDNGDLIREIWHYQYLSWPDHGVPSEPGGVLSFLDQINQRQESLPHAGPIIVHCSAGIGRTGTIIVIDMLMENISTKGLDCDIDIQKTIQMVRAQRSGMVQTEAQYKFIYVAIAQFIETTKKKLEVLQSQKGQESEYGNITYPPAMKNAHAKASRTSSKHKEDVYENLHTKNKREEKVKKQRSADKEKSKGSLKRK
UniProt P29351: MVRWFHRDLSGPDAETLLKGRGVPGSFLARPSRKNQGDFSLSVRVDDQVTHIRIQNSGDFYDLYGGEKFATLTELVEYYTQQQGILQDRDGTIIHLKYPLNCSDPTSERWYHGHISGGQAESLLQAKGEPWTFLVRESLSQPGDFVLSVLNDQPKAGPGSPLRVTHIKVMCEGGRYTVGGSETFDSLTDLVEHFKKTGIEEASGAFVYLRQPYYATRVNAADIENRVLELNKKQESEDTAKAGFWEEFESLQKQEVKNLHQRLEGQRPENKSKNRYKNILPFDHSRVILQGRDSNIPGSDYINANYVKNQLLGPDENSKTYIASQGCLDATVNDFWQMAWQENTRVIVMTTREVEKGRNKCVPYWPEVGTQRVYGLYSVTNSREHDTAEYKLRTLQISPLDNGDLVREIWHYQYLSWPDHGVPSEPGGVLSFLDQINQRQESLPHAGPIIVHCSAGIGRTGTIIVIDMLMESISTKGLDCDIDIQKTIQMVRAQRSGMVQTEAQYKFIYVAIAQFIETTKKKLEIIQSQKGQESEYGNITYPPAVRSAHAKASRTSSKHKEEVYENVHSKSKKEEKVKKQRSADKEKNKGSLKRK
UniProt Q921G8: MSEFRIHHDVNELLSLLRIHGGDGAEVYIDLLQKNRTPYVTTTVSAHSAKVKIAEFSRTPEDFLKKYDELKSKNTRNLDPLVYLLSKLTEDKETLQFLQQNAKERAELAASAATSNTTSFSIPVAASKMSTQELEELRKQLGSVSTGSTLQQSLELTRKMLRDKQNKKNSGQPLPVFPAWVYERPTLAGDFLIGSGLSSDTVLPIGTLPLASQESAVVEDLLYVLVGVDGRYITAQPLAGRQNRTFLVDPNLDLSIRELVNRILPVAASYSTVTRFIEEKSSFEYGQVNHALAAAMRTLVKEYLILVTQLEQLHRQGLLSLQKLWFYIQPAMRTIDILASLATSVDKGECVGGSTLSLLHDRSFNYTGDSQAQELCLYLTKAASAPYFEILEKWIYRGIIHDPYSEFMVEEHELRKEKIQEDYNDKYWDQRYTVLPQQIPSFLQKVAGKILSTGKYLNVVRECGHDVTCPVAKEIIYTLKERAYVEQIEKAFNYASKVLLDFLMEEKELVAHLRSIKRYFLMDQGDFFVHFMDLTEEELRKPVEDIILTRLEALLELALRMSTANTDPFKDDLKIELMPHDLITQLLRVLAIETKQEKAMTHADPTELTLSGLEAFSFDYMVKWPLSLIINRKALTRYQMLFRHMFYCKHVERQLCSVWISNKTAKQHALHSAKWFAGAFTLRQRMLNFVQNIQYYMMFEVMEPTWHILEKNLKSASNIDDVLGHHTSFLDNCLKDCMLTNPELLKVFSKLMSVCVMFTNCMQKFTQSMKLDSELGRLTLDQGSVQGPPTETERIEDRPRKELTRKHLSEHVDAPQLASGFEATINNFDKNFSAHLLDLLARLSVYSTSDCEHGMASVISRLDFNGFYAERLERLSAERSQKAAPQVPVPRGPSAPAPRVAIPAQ
UniProt Q9D4F8: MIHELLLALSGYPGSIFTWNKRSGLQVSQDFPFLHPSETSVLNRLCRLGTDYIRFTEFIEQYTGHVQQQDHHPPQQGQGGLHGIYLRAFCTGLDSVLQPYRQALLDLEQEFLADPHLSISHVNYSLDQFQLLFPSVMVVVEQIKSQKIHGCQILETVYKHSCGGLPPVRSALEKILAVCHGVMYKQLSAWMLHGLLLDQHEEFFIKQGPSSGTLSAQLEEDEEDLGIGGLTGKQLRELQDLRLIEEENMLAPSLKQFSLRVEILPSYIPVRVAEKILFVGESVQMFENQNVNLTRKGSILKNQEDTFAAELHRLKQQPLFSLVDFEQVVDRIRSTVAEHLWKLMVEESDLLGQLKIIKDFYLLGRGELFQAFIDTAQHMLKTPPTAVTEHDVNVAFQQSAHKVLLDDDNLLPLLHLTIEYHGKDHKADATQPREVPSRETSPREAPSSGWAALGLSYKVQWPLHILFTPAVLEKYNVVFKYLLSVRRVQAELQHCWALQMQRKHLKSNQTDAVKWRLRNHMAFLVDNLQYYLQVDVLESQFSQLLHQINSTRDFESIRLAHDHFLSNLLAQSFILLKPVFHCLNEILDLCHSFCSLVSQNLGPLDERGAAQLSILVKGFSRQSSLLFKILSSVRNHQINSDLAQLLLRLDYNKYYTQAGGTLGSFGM
UniProt Q9UGJ1: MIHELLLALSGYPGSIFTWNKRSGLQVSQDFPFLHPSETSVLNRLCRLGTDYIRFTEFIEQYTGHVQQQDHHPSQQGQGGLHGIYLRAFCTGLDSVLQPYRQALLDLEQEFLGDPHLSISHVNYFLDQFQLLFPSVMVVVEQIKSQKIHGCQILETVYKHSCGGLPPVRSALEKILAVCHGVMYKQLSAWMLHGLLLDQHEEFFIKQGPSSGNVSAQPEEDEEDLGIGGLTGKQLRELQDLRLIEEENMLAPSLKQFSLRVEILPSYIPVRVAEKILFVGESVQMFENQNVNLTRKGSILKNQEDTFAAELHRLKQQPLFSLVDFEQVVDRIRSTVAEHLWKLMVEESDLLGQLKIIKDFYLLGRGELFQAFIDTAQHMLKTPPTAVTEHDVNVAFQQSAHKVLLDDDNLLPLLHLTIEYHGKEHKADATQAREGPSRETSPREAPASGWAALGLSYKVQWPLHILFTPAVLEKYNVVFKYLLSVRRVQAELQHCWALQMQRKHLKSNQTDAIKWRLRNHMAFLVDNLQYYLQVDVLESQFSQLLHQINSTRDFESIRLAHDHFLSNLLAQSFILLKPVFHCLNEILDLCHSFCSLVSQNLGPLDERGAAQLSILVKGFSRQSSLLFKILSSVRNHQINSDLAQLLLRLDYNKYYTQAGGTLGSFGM
UniProt Q8BKN5: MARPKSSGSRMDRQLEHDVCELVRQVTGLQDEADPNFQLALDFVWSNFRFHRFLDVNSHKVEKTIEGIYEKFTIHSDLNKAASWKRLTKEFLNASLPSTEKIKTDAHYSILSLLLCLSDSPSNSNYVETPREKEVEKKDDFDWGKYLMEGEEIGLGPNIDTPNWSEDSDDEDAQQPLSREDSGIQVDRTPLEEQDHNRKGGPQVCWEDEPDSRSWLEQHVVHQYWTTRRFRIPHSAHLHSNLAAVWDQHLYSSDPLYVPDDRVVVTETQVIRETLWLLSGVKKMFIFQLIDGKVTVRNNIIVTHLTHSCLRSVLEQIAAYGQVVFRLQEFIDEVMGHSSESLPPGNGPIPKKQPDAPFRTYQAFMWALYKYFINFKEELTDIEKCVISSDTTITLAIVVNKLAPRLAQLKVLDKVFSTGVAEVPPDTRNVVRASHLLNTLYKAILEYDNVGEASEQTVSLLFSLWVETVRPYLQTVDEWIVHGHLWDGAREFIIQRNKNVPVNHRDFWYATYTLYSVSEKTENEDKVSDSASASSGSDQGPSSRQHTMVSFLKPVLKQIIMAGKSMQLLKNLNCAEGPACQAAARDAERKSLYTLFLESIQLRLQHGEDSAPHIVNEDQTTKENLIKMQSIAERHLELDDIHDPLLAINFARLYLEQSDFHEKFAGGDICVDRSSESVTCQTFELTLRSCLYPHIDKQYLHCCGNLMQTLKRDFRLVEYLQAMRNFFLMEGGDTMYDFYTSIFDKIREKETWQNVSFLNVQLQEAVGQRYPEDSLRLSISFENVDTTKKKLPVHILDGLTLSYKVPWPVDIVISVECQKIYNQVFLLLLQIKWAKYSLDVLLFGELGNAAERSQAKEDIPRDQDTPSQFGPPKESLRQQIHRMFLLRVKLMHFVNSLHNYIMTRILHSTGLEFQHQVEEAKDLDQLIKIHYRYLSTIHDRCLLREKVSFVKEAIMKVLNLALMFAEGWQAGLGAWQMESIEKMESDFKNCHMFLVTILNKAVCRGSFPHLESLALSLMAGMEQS
UniProt Q9BSJ2: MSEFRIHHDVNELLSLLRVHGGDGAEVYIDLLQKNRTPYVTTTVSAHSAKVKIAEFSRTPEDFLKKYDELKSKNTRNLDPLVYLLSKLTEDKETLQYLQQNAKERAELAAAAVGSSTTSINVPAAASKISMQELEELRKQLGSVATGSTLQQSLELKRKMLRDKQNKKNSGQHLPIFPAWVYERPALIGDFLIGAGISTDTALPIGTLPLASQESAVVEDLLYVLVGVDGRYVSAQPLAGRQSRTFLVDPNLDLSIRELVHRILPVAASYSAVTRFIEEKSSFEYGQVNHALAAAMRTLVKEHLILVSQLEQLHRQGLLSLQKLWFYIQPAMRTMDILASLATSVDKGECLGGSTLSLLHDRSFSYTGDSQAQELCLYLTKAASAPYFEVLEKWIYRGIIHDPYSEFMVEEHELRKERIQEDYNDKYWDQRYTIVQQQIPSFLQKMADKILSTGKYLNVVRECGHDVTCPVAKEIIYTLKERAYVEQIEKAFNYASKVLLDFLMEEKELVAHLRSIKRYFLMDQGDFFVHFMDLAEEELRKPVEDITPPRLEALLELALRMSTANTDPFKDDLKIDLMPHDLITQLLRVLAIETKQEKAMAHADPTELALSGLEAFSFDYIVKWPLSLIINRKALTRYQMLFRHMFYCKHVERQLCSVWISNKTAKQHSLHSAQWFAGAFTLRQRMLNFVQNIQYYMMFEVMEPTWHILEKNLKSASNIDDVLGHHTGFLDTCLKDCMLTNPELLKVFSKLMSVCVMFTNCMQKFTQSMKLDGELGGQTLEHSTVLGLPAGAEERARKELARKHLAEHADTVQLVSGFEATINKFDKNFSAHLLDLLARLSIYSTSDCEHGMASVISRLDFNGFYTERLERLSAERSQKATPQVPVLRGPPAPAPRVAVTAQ
UniProt P58854: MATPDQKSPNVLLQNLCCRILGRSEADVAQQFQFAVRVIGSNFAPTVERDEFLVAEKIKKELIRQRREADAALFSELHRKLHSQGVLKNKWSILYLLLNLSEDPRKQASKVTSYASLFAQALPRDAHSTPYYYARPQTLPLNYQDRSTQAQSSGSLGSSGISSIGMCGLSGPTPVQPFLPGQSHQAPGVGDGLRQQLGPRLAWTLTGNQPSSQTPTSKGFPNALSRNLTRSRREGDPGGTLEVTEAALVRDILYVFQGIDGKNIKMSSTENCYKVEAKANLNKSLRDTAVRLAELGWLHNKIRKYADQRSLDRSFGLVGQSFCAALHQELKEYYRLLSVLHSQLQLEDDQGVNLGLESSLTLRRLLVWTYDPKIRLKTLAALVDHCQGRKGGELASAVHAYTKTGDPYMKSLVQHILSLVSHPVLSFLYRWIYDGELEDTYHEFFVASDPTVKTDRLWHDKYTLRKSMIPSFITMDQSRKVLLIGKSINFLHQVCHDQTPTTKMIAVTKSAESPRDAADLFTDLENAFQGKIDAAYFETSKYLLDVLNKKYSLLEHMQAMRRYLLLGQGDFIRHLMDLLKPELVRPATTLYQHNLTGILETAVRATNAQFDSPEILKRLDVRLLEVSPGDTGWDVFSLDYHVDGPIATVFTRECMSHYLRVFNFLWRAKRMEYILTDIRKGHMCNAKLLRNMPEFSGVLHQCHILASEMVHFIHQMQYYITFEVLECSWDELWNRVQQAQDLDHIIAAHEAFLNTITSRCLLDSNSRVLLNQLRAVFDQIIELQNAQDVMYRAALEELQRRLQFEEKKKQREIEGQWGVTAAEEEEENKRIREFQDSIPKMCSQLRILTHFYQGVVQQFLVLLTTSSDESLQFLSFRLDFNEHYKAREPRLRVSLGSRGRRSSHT

Assays:
[1] = target: SHP-1 (MCF7 cells) (human (endogenous in MCF7)) (UniProt P29350); test: co-IP; MCF7 extracts precipitated with antibody to SHP-1 or to γ-tubulin, immunoblot
[2] = target: Src homology 2 (SH2) domain-containing protein tyrosine phosphatase 1 (SHP-1; Ptpn6) (mouse (endogenous in BMMCs)) (UniProt P29351); test: co-IP; BMMC extracts (HEPES buffer with 1% NP-40, protease inhibitors) incubated with antibodies immobilised on protein A or protein G beads, immunoblot; in Figure 9B cells nonactivated or antigen-activated (3 min, 10 min)
[3] = target: GCP2 (γ-tubulin complex protein 2; BMMCs) (mouse (endogenous in BMMCs)) (UniProt Q921G8); test: as above
[4] = target: GCP4 (γ-tubulin complex protein 4; BMMCs) (mouse (endogenous in BMMCs)) (UniProt Q9D4F8); test: as above

binding [1]: binds
Substance: GCP-4 (MCF7 cells) (from UniProt Q9UGJ1 1-667)

binding [2]: binds
binding [3]: binds
Substance: GCP4 (γ-tubulin complex protein 4; BMMCs) (from UniProt Q9D4F8 1-667)

binding [4]: binds
binding [3]: binds
Substance: Src homology 2 (SH2) domain-containing protein tyrosine phosphatase 1 (SHP-1; Ptpn6) (from UniProt P29351 1-595) (enzyme)

binding [4]: binds
binding [2]: binds
Substance: GCP2 (γ-tubulin complex protein 2; BMMCs) (from UniProt Q921G8 1-905)

binding [2]: binds
Substance: GCP5 (γ-tubulin complex protein 5; BMMCs) (from UniProt Q8BKN5 1-1024)

binding [2]: binds
Substance: GCP6 (γ-tubulin complex protein 6; BMMCs) (from UniProt G5E8P0 1-1769)

binding [1]: binds
Substance: GCP2 (MCF7 cells) (from UniProt Q9BSJ2 1-902)

binding [2]: binds
Substance: GCP3 (γ-tubulin complex protein 3; BMMCs) (from UniProt P58854 1-905)
